Results reported in PubChem BioAssay (EPA / NIEHS).
“And” between values parts separate entries of the source, which are not always exact repeats. Equal entries are not always repeated. Inconclusive means that the source gave no clear call. Such entries were picked first, then a sample of the others. For part of these data: Potencies beside an inconclusive call are fits to weak or partial responses and may not hold up. Some compounds were tested as several samples or in several runs, with calls that do not always agree. The source made the active and inactive calls. How the source made its calls: active means hit-call score of the fitted dose curve at least 0.9, where 1 is the maximum; inconclusive means response in the unintended direction; inactive means score below 0.9.

Sequences of proteins named here, by UniProt entry; tags and fusion partners are left off. A change or cut given only in a name is not applied to a line headed by its entry.
UniProt P08684, whole entry, looked up: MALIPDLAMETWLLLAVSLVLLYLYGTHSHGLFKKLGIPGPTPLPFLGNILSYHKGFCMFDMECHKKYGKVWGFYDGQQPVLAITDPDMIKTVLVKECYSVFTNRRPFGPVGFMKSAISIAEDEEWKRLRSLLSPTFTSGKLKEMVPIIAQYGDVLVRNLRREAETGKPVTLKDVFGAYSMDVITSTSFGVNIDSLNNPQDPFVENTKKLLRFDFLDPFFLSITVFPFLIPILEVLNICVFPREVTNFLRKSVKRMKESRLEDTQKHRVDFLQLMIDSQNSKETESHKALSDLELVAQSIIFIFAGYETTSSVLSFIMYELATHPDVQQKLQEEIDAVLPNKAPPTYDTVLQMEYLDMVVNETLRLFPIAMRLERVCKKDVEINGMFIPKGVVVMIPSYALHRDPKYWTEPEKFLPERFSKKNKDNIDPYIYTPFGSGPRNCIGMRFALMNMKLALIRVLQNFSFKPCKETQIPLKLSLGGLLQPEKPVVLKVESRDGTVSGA
UniProt P16177, whole entry, looked up: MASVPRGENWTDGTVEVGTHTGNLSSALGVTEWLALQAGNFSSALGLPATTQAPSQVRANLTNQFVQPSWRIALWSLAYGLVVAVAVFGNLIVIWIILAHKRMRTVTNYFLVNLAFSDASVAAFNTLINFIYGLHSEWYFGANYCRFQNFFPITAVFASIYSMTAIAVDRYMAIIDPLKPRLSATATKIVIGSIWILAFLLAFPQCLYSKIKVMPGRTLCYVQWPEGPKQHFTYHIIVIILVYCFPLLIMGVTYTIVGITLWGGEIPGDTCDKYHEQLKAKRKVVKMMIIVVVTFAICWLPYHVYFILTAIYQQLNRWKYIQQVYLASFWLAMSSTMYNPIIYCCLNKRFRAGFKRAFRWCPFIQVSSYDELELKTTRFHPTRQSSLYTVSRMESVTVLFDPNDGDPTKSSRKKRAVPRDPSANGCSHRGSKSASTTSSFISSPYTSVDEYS
UniProt P30536, whole entry, looked up: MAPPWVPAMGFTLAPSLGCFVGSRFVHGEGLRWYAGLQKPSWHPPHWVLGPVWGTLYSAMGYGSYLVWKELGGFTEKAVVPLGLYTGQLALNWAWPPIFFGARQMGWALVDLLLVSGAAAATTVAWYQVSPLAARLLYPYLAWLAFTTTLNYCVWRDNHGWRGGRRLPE
UniProt P06401: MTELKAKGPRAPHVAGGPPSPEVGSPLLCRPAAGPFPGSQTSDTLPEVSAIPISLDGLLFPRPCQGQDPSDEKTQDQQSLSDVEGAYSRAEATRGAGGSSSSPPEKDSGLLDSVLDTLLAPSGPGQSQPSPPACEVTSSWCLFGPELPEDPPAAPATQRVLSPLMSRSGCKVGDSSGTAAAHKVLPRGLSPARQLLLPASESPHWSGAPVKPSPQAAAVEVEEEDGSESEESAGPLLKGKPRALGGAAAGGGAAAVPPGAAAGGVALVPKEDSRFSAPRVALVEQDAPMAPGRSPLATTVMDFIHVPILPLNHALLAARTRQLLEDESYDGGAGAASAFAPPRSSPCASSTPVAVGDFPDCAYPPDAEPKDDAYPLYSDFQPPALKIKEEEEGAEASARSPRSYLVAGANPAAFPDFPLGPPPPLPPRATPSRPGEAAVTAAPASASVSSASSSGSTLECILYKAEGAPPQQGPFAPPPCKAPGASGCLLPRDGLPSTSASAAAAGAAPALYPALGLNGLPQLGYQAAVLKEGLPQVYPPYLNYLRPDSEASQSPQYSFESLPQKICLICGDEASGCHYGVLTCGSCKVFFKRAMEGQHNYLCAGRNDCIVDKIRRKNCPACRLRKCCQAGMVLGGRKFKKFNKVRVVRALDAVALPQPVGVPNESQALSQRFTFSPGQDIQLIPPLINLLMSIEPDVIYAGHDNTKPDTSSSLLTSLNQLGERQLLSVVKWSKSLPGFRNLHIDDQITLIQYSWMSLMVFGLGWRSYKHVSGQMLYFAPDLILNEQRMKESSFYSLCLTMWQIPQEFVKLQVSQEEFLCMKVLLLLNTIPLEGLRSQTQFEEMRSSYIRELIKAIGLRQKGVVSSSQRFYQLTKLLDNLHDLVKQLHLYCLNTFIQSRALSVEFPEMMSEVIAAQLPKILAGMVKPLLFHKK
UniProt Q02763: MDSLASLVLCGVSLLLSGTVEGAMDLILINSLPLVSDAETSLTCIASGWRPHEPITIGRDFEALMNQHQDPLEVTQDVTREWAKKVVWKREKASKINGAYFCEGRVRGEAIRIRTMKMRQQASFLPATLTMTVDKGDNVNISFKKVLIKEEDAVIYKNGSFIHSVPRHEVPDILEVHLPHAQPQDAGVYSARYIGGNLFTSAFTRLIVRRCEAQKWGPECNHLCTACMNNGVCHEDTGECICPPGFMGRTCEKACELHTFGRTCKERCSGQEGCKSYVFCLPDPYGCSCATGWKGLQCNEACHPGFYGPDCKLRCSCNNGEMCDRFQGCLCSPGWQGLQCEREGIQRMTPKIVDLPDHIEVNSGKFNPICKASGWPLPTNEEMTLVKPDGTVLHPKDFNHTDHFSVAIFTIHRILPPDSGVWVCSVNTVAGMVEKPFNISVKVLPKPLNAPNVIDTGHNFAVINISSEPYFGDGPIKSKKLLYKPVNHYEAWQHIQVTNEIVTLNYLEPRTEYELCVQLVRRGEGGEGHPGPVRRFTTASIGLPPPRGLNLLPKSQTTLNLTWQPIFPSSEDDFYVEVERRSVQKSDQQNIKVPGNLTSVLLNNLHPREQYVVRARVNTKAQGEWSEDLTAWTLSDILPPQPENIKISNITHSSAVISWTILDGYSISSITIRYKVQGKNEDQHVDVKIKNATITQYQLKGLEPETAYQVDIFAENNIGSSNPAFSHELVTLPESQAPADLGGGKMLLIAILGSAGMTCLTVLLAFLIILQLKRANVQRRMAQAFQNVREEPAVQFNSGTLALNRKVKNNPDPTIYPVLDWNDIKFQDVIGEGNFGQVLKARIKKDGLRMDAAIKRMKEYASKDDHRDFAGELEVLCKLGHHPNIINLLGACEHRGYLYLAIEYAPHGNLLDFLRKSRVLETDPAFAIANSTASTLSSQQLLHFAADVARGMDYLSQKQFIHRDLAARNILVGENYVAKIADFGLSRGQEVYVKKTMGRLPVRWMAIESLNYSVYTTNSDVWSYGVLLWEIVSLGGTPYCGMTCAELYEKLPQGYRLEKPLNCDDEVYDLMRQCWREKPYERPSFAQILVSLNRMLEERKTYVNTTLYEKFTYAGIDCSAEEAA
UniProt P49841: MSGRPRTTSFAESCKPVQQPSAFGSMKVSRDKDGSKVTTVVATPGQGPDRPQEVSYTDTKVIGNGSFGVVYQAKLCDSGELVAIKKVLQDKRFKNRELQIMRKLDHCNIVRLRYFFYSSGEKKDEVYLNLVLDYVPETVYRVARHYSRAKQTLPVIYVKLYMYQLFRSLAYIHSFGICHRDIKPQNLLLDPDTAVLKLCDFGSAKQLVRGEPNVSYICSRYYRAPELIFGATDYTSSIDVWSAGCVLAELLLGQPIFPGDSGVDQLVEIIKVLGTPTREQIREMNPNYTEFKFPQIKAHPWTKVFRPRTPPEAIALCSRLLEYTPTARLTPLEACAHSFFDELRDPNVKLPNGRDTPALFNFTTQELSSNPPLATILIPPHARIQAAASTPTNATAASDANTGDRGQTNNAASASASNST
UniProt P37231: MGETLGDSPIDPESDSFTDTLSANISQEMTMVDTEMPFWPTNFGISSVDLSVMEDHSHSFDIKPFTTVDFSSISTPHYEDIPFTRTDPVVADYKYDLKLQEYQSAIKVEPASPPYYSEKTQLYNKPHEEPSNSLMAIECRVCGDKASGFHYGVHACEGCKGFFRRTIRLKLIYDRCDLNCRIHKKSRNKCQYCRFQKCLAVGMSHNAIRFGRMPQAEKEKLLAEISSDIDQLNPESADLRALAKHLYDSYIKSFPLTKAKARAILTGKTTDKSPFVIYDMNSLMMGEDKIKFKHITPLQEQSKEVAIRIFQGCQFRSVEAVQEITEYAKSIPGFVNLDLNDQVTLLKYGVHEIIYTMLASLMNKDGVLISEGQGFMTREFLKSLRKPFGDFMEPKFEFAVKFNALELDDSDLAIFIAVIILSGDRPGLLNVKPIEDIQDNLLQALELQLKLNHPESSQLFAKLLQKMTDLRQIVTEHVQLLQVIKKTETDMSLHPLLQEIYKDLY
UniProt P00567: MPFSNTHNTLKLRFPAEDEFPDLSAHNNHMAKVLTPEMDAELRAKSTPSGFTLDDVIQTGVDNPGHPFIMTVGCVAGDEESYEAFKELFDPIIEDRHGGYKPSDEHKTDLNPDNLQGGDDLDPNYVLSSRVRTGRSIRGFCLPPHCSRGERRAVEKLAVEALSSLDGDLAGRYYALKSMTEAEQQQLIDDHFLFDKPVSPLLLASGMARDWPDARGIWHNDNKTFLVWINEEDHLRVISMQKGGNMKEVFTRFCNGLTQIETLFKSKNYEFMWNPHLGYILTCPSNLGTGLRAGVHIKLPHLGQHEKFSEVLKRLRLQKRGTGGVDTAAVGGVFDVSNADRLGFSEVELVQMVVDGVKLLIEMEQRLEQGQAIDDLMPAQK
UniProt P06241, whole entry, looked up: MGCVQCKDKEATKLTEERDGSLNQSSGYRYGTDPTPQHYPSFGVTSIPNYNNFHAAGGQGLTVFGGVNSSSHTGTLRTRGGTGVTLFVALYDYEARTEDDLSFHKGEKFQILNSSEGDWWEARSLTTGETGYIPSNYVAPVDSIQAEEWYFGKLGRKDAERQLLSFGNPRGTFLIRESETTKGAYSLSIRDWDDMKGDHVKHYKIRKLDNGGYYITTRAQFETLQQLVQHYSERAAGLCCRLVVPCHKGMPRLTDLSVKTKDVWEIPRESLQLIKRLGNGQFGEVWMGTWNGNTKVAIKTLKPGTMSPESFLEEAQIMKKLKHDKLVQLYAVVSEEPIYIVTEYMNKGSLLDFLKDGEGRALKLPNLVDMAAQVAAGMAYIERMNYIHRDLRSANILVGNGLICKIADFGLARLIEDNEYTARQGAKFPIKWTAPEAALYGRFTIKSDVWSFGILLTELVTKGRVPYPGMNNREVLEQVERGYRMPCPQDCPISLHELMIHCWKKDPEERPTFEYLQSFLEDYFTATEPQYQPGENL
UniProt P27361, whole entry, looked up: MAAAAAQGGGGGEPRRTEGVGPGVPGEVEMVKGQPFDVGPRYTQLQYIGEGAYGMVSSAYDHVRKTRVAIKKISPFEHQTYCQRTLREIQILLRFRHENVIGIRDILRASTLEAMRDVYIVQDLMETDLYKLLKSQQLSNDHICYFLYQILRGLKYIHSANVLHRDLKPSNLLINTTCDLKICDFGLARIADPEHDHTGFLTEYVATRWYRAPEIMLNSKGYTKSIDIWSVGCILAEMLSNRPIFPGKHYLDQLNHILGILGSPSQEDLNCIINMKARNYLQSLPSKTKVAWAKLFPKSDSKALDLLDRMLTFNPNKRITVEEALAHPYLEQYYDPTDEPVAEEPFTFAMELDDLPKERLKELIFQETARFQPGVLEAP
UniProt Q15678: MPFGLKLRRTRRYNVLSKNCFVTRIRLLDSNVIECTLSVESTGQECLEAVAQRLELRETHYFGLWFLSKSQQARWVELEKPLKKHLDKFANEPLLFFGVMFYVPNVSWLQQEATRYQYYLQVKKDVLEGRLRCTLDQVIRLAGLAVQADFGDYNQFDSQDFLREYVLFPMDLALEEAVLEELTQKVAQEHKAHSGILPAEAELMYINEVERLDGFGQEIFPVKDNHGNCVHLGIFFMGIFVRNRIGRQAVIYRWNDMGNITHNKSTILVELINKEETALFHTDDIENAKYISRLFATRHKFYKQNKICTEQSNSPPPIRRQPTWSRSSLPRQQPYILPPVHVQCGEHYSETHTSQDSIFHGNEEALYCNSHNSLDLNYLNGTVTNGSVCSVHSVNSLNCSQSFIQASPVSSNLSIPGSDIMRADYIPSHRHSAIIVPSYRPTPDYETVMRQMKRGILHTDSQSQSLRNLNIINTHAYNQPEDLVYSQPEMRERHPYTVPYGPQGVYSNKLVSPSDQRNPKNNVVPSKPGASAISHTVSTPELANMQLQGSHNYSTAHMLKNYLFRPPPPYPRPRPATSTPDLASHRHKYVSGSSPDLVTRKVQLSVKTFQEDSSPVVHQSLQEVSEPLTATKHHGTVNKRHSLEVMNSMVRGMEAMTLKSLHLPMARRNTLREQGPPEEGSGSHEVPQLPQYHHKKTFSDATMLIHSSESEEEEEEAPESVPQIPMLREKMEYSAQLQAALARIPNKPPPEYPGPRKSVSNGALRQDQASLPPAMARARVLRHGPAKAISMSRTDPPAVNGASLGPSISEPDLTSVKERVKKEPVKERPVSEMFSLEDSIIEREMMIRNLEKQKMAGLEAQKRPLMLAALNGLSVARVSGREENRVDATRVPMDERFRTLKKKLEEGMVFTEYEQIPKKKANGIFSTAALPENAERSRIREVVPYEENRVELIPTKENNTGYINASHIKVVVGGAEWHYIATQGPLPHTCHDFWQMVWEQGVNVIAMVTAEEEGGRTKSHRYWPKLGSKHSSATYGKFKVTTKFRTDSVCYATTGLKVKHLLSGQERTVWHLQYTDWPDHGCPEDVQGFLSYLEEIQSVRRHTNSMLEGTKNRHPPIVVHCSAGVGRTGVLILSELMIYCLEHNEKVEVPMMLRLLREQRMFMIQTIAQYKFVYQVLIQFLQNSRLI

Key:
[1] = CCTE_Simmons_CellTiterGLO_HEK293T: Viability Assessment in CCTE's Assays for Thyroperoxidase (TPO) Inhibition, Simmons Lab (AID 2283665)
Procedure, shortened: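 Cells were seeded overnight, then exposed to an eight-point series up to 87.5 uM final for 24 hours. CellTiter-Glo reagent was added and luminescence read after 20 min, giving ATP-based viability versus DMSO.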

[2] = target: human Adenosine A2a Receptor (AdoRA2a), ADORA2A (gene 135) (UniProt P29274); assay: NVS_GPCR_hAdoRA2a: NovaScreen (NVS) G Protein-Coupled Receptor Assay for human Adenosine A2a Receptor (AdoRA2a) (AID 2283256)
Procedure, shortened: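 Compounds screened in duplicate at 25 uM, with actives followed up in concentration series, for displacement of a radioligand from HEK293-derived receptor protein. Bound counts read by filter scintillation at 1.5 hours, DMSO as baseline.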

[3] = target: Cytochrome P450 3A4 (Homo sapiens) (UniProt P08684); assay: NVS_ADME_hCYP3A4: NovaScreen (NVS) CYP450-related Enzyme Activity (ADME) Assay for human CYP3A4 (AID 2283110)
Procedure, shortened: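 Activity is derived from decreased fluorescence intensity relative to acetonitrile, measured 0.33 hour after dosing insect-cell-expressed CYP3A4 in a cell-free format. Screening used 10 uM in duplicate before concentration-response follow-up.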

[4] = target: rat Neurokinin-3 Receptor (NK3), Tacr3 (gene 24808) (UniProt P16177); assay: NVS_GPCR_rNK3: NovaScreen (NVS) G Protein-Coupled Receptor Assay for rat Neurokinin-3 Receptor (NK3) (AID 2283310)
Procedure, shortened: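 Filter-based radioligand displacement on rat cortex membrane preparations, read by scintillation 2 h post-dose. Chemicals first tested in duplicate at 25 uM; actives followed up in concentration series with a 50 uM maximum.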

[5] = target: human Peripheral-type Benzodiazepine Receptor (PBR), TSPO (gene 706) (UniProt P30536); assay: NVS_MP_hPBR: NovaScreen (NVS) Membrane Protein Assay for human Peripheral-type Benzodiazepine Receptor (PBR) (AID 2283331);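 further: hits reduce radioligand binding relative to DMSO baseline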
Procedure, shortened: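 Using human colon-derived membranes, this one-endpoint binding test reads radioligand loss by scintillation after 1 h. Screening started at 25 uM in duplicate, with positive and negative controls on every plate, and actives moved to dose series.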

PGR (gene 5241) = PGR (gene 5241) (UniProt P06401); assay: NVS_NR_hPR: NovaScreen (NVS) Nuclear Receptor Binding Assay for human Progestron Receptor (PR) (AID 2283360);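 further: active means loss of bound radioligand signal versus DMSO baseline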
Procedure, shortened: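 T47D-derived receptor preparation, cell-free, with tritiated or iodinated radioligand displacement measured by scintillation 18 h post-dosing. Single 25 uM duplicate screen, then concentration series; signal loss relative to DMSO.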

[6] = target: human Caspase 8 (CASP8), CASP8 (gene 841) (UniProt Q14790); assay: NVS_ENZ_hCASP8: NovaScreen (NVS) Enzymatic Assay for human Caspase 8 (CASP8) (AID 2283146)
Procedure, shortened: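 The primary screen tested compounds in duplicate at a single 25 uM concentration, with actives followed up in concentration series. Activity of recombinant (E. coli) protease was measured by fluorescence 1 h post-dose, as signal loss against DMSO.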

[7] = target: human Tyrosine Protein Kinase Receptor Tie-2 (Tie2), TEK (gene 7010) (UniProt Q02763); assay: NVS_ENZ_hTie2: NovaScreen (NVS) Enzymatic Assay for human Tyrosine Protein Kinase Receptor Tie-2 (Tie2) (AID 2283225)
Procedure, shortened: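 Substrate and product were separated by mobility shift and detected by fluorescence after a 1-hour reaction with recombinant Tie2. Chemicals passing a 25 uM single-point screen were titrated to a maximum of 50 uM. Results were normalized to DMSO baseline.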

[8] = target: human Vascular Endothelial Growth Factor Receptor 2 (VEGFR2), KDR (gene 3791) (UniProt P35968); assay: NVS_ENZ_hVEGFR2: NovaScreen (NVS) Enzymatic Assay for human Vascular Endothelial Growth Factor Receptor 2 (VEGFR2) (AID 2283230)
Procedure, shortened: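 Cell-free recombinant VEGFR2 kinase, fluorescent substrate with electrophoretic mobility-shift separation; read 1 h after dosing. Screened at 25 uM in duplicate, hits to concentration-response up to 50 uM; loss-of-signal versus DMSO.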

[9] = Tanguay_ZF_120hpf_YSE_legacy: (Legacy) Oregon State University Tanguay Lab 120 Hour Post-fertilization zebrafish Assay for Yolk Sac Edema (AID 2283634);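 further: actives raise the incidence of yolk sac edema above the DMSO baseline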
Procedure, shortened: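 Binary brightfield scoring of yolk sac edema at 120 hpf; DMSO baseline, gain-of-signal fitting. Dechorionated 5D larvae, one per well, static exposure 6–120 hpf, 28C, 0.64% DMSO. Dead embryos not scored.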

[10] = target: Glycogen synthase kinase-3 beta (Homo sapiens) (UniProt P49841); assay: NVS_ENZ_hGSK3b: NovaScreen (NVS) Enzymatic Assay for human Glycogen Synthase Kinase-3 beta (GSK3b) (AID 2283165)
Procedure, shortened: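 Recombinant enzyme with specific fluorescent substrate, 1 h, product separated by electrophoretic mobility shift. Primary duplicate screen at 25 uM; actives (e.g. 30% inhibition) followed in singleton concentration-response to 50 uM. Signal loss fitted versus DMSO.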

[11] = target: Peroxisome proliferator-activated receptor gamma (Homo sapiens) (UniProt P37231); assay: OT_PPARg_PPARgSRC1_0480: Odyssey Thera (OT) 8-hour Protein-Complementation Assay for Peroxisome Proliferator-activated Receptor Gamma / SRC-1 Co-activator (AID 2283387);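 further: nuclear to cytoplasmic split Venus YFP fluorescence ratio reporting PPARg SRC-1 interaction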
Procedure, shortened: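 Protein-fragment complementation of split Venus YFP reports PPARg/SRC-1 interaction in HEK293T (transfected 48 h before treatment), exposed 8 h. Readout: N/C fluorescence ratio at 488 nm from imaging, Draq5 for segmentation, positive fit relative to DMSO.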

[12] = target: rabbit Imidazoline 2 Central (I2C), CKB (gene 100009085) (UniProt P00567); assay: NVS_ENZ_rabI2C: NovaScreen (NVS) Enzymatic Assay for rabbit Imidazoline 2 Central (I2C) (AID 2283228)
Procedure, shortened: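 Rabbit brain membranes, cell-free; readout by filter-based scintillation counting 1.5 hours after dosing, loss of signal vs DMSO. Initial duplicate test at 25 uM, then concentration-response with 50 uM top concentration.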

[13] = target: human Protein Tyrosine Phosphatase Non-receptor Type 9 (PTPN9), PTPN9 (gene 5780) (UniProt P43378); assay: NVS_ENZ_hPTPN9: NovaScreen (NVS) Enzymatic Assay for human Protein Tyrosine Phosphatase Non-receptor Type 9 (PTPN9) (AID 2283209)
Procedure, shortened: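 Sf9-expressed enzyme in a cell-free assay, fluorescence read 1.33 h after dosing with mobility-shift separation of substrate and product. Tested at 25 uM in duplicate, then up to 50 uM; signal loss versus DMSO.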

[14] = target: human Peroxisome Proliferator-activated Receptor alpha (PPARa), PPARA (gene 5465) (UniProt Q07869); assay: NVS_NR_hPPARa: NovaScreen (NVS) Nuclear Receptor Binding Assay for human Peroxisome Proliferator-activated Receptor alpha (PPARa) (AID 2283359);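 further: activity means loss of TR-FRET signal versus DMSO baseline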
Procedure, shortened: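 One-hour incubation, cell-free extracted protein, TR-FRET binding readout; signal loss vs DMSO scored. Screen: 25 uM duplicates, confirmatory dose series for actives.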

[15] = target: human FYN Proto-Oncogene, Src family Tyrosine Kinase (Fyn), FYN (gene 2534) (UniProt P06241); assay: NVS_ENZ_hFyn: NovaScreen (NVS) Enzymatic Assay for human FYN Proto-Oncogene, Src family Tyrosine Kinase (Fyn) (AID 2283161)
Procedure, shortened: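 Cell-free kinase activity read by fluorescence after mobility-shift separation of substrate and product, 1 h post-dose. Initial single concentration 25 uM in duplicate, then concentration-response follow-up; DMSO baseline.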

[16] = target: Mitogen-activated protein kinase 3 (Homo sapiens) (UniProt P27361); assay: NVS_ENZ_hMAPK3: NovaScreen (NVS) Enzymatic Assay for human Mitogen-Activated Protein Kinase 3 (MAPK 3) (AID 2283177)
Procedure, shortened: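 Chemicals were first tested in duplicate at 25 uM, with hits re-run as concentration series (max 50 uM). Recombinant enzyme activity, measured 1 h post-dose in a cell-free format, was read by fluorescence/mobility shift relative to DMSO.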

[17] = target: Tyrosine-protein phosphatase non-receptor type 14 (Homo sapiens) (UniProt Q15678); assay: NVS_ENZ_hPTPN14: NovaScreen (NVS) Enzymatic Assay for human Protein Tyrosine Phosphatase Non-receptor Type 14 (PTPN14) (AID 2283206)
Procedure, shortened: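 Fluorescent substrate turnover by recombinant human PTPN14 was measured 0.5 h after compound addition, with substrate and product separated by mobility shift. Single-point screening at 25 uM, then concentration-response up to 50 uM for chemicals meeting threshold (e.g., 30% inhibition).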

[18] = STM_H9_NormalizedViability: Cytotoxicity Assessment at 120 hours in the Stemina devTOX quickPredict H9 human embryonic stem cell (hESC)-based Assay (AID 2283784)
Procedure, shortened: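 Viability of the cell layer was taken from live-cell protease cleavage of a fluorogenic substrate after compound exposure of undifferentiated H9 stem cells, with replenishment each 24h. Fluorescence was normalized to vehicle (0.1% DMSO).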

[19] = IUF_NPC4_neurite_area_120hr: Leibniz Research Institute for Environmental Medicine (IUF) 120-hour Neuronal Morphology Assay for Neurite Area (NPC4) (AID 2284305)
Procedure, shortened: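 Endpoint at 120 h: automated imaging of TUBB3/Hoechst-stained differentiating human neural progenitor spheres, neurite area per neuron from skeletonization. DMSO solvent control, not above 0.1%, set the baseline; medium was half-replaced on day 3.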

Structure (SMILES): Nc1cc2c3c(c1)C(c1ccccc1)=N[C@@H](NC(=O)c1cccnc1)C(=O)N3CC2
- outcome [1]: inactive

Structure (SMILES): CC1OC(C)OC(C)O1 (centres undefined)
- AC50 [2]: inconclusive: 0.133 µM

Structure (SMILES): N#CC(Br)(Br)C(N)=O
- outcome [3]: inactive

Structure (SMILES): ClCCCCl
- AC50 [3]: inconclusive: 0.00046 µM

Structure (SMILES): CCCCC(C#N)(Cn1cncn1)c1ccc(Cl)cc1 (centres undefined)
- outcome [4]: inactive
- outcome [5]: inactive
- AC50 (PGR (gene 5241)): inconclusive: 6.51 µM

Structure (SMILES): ClCCOCCCl
- AC50 [6]: inconclusive: 39.3 µM
- AC50 [7]: inconclusive: 13 µM
- AC50 [8]: inconclusive: 25 µM
- AC50 [9]: inconclusive: 70.7 µM

Structure (SMILES): CCCCCCCCc1ccc(O)cc1
- outcome [10]: inactive
- AC50 [11]: inconclusive: 50.5 µM

Structure (SMILES): COS(=O)(=O)c1ccc(C)cc1
- outcome [2]: inactive

Structure (SMILES): CC(=O)c1ccc(-c2ccccc2)cc1
- AC50 [2]: inconclusive: 6.49 µM

Structure (SMILES): COP(=S)(OC)SCN1C(=O)c2ccccc2C1=O
- outcome [11]: inactive

Structure (SMILES): COc1ccccc1N
- outcome [12]: inactive

Structure (SMILES): CCCCCCCCCCCCc1cccc(S(=O)(=O)O)c1
- AC50 [13]: active: 5.53 µM
- AC50 [14]: active: 9.25 µM

Structure (SMILES): CN(C)[C@@H]1C(=O)C(C(N)=O)=C(O)[C@@]2(O)C(=O)C3=C(O)c4c(O)cccc4[C@@](C)(O)[C@H]3[C@H](O)[C@@H]12
- AC50 [6]: active: 15.8 µM
- AC50 [15]: inconclusive: 16.9 µM
- AC50 [16]: active: 19.1 µM
- AC50 [17]: active: 26.3 µM
- AC50 [7]: active: 7.51 µM and active: 13.4 µM and active: 8.19 µM
- AC50 [8]: active: 12.3 µM and active: 18.2 µM
- outcome [8]: inactive
- AC50 [4]: inconclusive: 11.2 µM
- AC50 [18]: active: 50 µM and inconclusive: 0.3 nM
- AC50 [19]: inconclusive: 0.0451 µM

Structure (SMILES): CC(C)(C)CC(C)(C)c1ccc(O)cc1
- outcome [2]: inactive

Structure (SMILES): S=C1NCCN1
- outcome [15]: inactive
- AC50 [10]: inconclusive: 25 µM
- AC50 [17]: inconclusive: 5.9 µM
- AC50 [13]: inconclusive: 0.139 µM
- AC50 [12]: inconclusive: 1.27 µM
- AC50 [4]: inconclusive: 25 µM
- AC50 [18]: inconclusive: 14.5 µM

Structure (SMILES): CCCCCCCCCCCCOS(=O)(=O)O
- AC50 [7]: active: 26.9 µM

Structure (SMILES): Oc1cc(Cl)c(Cl)cc1Cl
- outcome [14]: inactive
